Data from publication PMC9144050.
No constants are given. Whether binding was seen depends on the method and setting. Binding seen in cells or lysates may run through a third protein. Some results given as binding are weak or reduced against the parent protein; the word gives no strength. For some of these results: Sequences can lack the tags named with a protein.

Chains of the proteins cited; added tags and fusions are not shown.
UniProt P25911: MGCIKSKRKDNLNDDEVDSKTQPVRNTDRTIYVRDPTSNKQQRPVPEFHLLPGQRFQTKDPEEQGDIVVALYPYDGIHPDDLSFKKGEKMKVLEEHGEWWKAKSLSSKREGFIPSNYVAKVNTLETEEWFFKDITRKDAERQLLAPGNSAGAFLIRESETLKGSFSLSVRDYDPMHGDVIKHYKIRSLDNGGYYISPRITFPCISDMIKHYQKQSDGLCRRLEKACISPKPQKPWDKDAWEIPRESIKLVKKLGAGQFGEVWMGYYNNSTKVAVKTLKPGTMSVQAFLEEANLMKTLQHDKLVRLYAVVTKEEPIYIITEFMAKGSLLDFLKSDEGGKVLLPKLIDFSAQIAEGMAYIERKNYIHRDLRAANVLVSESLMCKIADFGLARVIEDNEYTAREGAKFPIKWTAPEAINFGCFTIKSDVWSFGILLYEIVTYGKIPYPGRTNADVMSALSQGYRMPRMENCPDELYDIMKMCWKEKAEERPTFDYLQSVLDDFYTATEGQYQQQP
UniProt Q8VDZ4: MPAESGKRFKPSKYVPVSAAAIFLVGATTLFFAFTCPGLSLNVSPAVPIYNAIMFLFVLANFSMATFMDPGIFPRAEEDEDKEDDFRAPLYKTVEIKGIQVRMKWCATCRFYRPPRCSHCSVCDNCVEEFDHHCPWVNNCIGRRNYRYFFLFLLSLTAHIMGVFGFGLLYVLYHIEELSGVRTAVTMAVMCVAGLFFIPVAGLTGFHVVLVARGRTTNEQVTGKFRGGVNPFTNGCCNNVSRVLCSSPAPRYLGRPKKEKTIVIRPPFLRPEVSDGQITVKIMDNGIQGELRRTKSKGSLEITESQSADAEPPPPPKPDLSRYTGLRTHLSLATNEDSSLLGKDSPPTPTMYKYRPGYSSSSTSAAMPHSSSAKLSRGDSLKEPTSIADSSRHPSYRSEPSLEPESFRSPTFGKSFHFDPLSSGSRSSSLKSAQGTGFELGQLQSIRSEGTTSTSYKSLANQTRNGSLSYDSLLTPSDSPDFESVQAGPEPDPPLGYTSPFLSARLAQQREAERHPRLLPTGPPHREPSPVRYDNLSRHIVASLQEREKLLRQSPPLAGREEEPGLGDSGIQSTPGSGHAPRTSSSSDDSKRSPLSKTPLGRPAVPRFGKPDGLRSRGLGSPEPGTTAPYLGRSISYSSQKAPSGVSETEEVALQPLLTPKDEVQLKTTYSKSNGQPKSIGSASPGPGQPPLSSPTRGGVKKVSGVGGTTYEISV
UniProt Q08857: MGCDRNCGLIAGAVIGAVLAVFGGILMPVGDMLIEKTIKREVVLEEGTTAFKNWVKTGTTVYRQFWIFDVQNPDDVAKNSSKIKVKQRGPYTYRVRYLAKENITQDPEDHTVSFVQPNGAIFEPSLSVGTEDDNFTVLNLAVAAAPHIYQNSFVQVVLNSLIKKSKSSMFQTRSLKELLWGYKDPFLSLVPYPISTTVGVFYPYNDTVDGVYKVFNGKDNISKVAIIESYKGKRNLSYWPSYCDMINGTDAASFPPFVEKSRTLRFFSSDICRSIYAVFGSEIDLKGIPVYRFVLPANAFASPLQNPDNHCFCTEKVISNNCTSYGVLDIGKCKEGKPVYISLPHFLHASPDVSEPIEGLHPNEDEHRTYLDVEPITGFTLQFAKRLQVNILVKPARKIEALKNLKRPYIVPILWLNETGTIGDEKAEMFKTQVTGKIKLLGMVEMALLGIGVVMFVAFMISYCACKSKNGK
UniProt P39688: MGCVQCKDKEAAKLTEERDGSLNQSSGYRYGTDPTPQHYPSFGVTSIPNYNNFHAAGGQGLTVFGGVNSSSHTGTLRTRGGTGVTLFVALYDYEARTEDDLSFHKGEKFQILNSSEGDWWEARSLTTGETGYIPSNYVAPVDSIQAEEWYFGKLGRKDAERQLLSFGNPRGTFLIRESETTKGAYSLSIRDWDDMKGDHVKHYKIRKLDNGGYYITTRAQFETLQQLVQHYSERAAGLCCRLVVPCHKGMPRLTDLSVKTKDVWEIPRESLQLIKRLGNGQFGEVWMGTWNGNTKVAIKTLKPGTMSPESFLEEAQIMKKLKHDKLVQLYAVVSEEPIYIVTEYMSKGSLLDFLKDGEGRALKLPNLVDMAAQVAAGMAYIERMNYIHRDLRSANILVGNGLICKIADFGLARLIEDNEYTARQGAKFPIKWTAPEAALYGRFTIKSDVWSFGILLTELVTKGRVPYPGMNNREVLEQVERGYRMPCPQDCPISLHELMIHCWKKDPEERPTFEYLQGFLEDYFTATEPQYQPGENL

Key:
[1] = biological target: Lyn (mouse (endogenous in RAW264.7)) (UniProt P25911); assay: co-IP; RAW264.7 cells untreated or treated with HDL or oxHDL (80 ug/ml, 24 h), also oxHDL with 2-BP (100 uM); RIPA lysates immunoprecipitated with anti-Lyn antibody and Protein A/G Sepharose at 4 °C; blots for CD36, Fyn and Lyn
[2] = biological target: T1, DHHC4 (mouse (endogenous in RAW264.7)) (UniProt Q9D6H5); assay: co-IP; RAW264.7 cells treated with HDL or oxHDL; RIPA lysates immunoprecipitated with DHHC4, DHHC5 or DHHC6 antibody and Protein A/G Sepharose at 4 °C; blots for CD36 and the DHHCs
T1 sequence: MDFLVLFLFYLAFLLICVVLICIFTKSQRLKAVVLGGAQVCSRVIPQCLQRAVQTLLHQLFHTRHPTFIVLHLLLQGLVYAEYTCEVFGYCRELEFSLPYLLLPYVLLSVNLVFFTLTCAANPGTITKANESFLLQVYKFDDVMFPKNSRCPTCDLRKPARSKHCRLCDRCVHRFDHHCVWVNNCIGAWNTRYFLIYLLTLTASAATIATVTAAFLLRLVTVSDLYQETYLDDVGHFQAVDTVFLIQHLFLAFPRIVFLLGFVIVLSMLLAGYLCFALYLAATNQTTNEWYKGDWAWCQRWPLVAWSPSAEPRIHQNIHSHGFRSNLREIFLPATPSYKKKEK

[3] = biological target: T2, DHHC6 (Asp-His-His-Cys) acyltransferase (mouse (endogenous in RAW264.7)) (UniProt Q9CPV7); assay: as above
T2 sequence: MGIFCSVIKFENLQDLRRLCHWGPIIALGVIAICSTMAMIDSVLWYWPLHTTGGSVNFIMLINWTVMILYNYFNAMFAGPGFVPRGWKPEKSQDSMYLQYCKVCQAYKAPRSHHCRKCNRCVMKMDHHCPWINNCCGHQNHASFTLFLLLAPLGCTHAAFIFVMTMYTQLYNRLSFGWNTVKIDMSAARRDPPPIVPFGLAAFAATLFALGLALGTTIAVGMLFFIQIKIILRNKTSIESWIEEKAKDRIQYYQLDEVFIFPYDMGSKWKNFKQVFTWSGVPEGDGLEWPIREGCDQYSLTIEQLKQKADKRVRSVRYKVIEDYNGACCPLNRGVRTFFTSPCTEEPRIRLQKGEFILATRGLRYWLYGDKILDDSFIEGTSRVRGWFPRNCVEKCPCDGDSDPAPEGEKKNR

[4] = biological target: DHHC5 (mouse (endogenous in RAW264.7)) (UniProt Q8VDZ4); assay: as above
[5] = biological target: T2, DHHC6 (Asp-His-His-Cys) acyltransferase (mouse (endogenous in RAW264.7)); assay: co-IP; RAW264.7 cells treated with HDL or oxHDL; RIPA lysates precipitated for DHHC6, Protein A/G Sepharose at 4 °C; blot for SelK
[6] = biological target: Cluster of differentiation 36 (CD36) (mouse (endogenous in RAW264.7)) (UniProt Q08857); assay: co-IP; RAW264.7 cells treated with HDL or oxHDL; RIPA lysates immunoprecipitated for CD36, Protein A/G Sepharose at 4 °C; blot for Cav-1

For “Cluster of differentiation 36 (CD36) (from UniProt Q08857 1-472) (receptor)”, the binding [1] was “binds”, the binding [2] was “binds” and the binding [3] was “binds”. The binding [4] was “binds”.

In the case of “Fyn (from UniProt P39688 1-537) (enzyme)”, the binding [1] is reported as “binds”.

B1: Selenoprotein K (SelK) (protein, UniProt Q9JLJ1 1-94)
chain: MVYISNGQVLDSRNQSPWRVSFLTDFFWGIAEFVVFFFKTLLQQDVKKRRGYGSSSDSRYDDGRGPPGNPPRRMGRISHLRGPSPPPMAGGUGR
In the case of B1, the binding [5] is reported as “binds”.

B2: Caveolin-1 (Cav-1) (protein, UniProt P49817 1-178)
chain: MSGGKYVDSEGHLYTVPIREQGNIYKPNNKAMADEVTEKQVYDAHTKEIDLVNRDPKHLNDDVVKIDFEDVIAEPEGTHSFDGIWKASFTTFTVTKYWFYRLLSTIFGIPMALIWGIYFAILSFLHIWAVVPCIKSFLIEIQCISRVYSIYVHTFCDPLFEAIGKIFSNIRISTQKEI
In the case of B2, the binding [6] is reported as “binds”.
